Reference: US20250319026A1, “VITAMIN COMPOSITION FOR ORAL ADMINISTRATION” (priority 2023, published 2025)
Some results were stated once for a whole list of compounds, not compound by compound.

Assay: Concentrations of B vitamins obtainable in solution using polysorbate 40 as a solvent
Assay type: physicochemical
Settings: polysorbate 40 as a solvent in an amount of at least 1.8 wt. %; water
Description: One of the major disadvantages and drawbacks of the aforementioned prior art references is the absence of both pyridoxine, thiamine, cyanocobalamin in sufficiently high concentrations to ensure the supply of these vitamins to cover the necessary needs of the body.

Cc1ncc(CO)c(CO)c1O [pyridoxine]
concentration obtainable in the solution: at least 6 wt. %
